Reference: paper PMC10146067
These are yes or no findings as the source states them, for the method shown. In cells and extracts the contact can be indirect. Binding calls can cover weak binding; strength is not graded here.

B1: Bombyx mori acetyltransferase cyclic adenosine monophosphate response element binding protein (CREB) binding protein (BmCBP) (enzyme, UniProt Q8MYA9 1-297)
chain: MADSTSKSAPKINEETAERQLNELINVDSHDEYENRLSRISSALANWMKSVFNMDTTTKEEFDPVWLSIDEYKSQANESMANAWRIITLPNWTVEKRGTVRGDVVESRKVEGFGKVYRFTGVVNCPARFLYEEFKNNLTKLPEWNPTILKCEIIKEIGDGVDLSYQVTAGGGRGIITPRDFVILRRTALLSREGRVVDDNPHGYISSGVSVQVPGYPPLKEMVRGHNKVGCWYLQPRTVQTPGGKIEDQALFQWLMCCDLKGKIPQFVLDVAFATVMLDYIVHVRKFVAEAKARAEI

Key:
[1] = target: T1, Bombyx mori acetyltransferase cyclic adenosine monophosphate response element binding protein (CREB) binding protein (BmCBP) (Bombyx mori (endogenous in BmN)) (UniProt Q8MYA9); assay: co-IP; BmN cells transfected with pIEX-1-si-GFP-BmApoLp-II, lysed 72 h post-transfection at 4 °C; Dynabeads Protein G loaded with anti-His antibody or rabbit anti-BmCBP antibody, incubated with the cell lysate, washed three times, Western blotting; IgG antibody as negative control; both …
T1 sequence: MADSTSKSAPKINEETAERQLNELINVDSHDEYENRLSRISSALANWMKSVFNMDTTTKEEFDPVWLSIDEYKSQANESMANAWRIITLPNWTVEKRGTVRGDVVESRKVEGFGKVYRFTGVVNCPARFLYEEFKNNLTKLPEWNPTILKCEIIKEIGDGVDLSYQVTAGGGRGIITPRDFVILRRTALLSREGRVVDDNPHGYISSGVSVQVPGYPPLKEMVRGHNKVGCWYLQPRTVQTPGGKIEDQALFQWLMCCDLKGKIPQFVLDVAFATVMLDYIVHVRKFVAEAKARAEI

[2] = target: His-BmApoLp-II protein (Bombyx mori apolipophorin II) (Bombyx mori); assay: as above

Molecule	binding [1]	binding [2]
His-BmApoLp-II protein (Bombyx mori apolipophorin II)	binds	
B1		binds
